Data from PubChem BioAssay AID288 (DTP/NCI, 2004).
The list shows only some results of the screen, not a fair sample: it covers a few groups of compounds. Other doses and runs of a compound may be missing. T/C: endpoint of the treated group in % of that of the vehicle group. Schedule codes are those of the source, taken here to give the interval after Q, in days (D) or hours (H), and the number of doses after X. Some T/C values are followed by the survivors on the day toxicity was checked; without a count or a note in brackets, all were alive then. Some doses have a count of surviving animals in place of a T/C: the source holds a T/C of zero for them, seemingly a mark for toxic or unscored doses. Survivors were counted at the toxicity check; its day is shown where the source gives one, and later deaths do not show.

Tested on: BDF1 mice, M5076 sarcoma s.c., survival/tumor T/C
Experiment: NCI In Vivo Anticancer Drug Screen. Data for tumor model Sarcoma M5076 (subcutaneous) in B6D2F1 (BDF1) mice
Settings: schedule: Q02DX011 (ip), vehicle: Klucel (hydroxypropylcellulose) (HPC), higher T/C = larger tumour; for T/C: evaluated on day 22
Protocol: The antitumor activity of compounds was measured in mice bearing transplantable tumors. Survival or tumor size were measured and the results are expressed as the measurement made in the treated group (T) divided by the measurement made in the vehicle treated control group (C). The tumor model used in this assay is Sarcoma M5076 (subcutaneous) in B6D2F1 (BDF1) mice

[1] = T/C endpoint: mean tumor weight, dose: 50.0 mg/kg/injection

Structure (SMILES) | T/C (T/C endpoint: mean tumor weight, dose: 12.5 mg/kg/injection) | T/C (T/C endpoint: mean tumor weight, dose: 25.0 mg/kg/injection) | T/C [1] | T/C (T/C endpoint: median tumor weight (est.), dose: 12.5 mg/kg/injection) | T/C (T/C endpoint: median tumor weight (est.), dose: 25.0 mg/kg/injection) | T/C (T/C endpoint: mean tumor weight, dose: 100.0 mg/kg/injection) | survivor count (T/C endpoint: mean tumor weight, dose: 200.0 mg/kg/injection)
NC(=O)c1[nH]cnc1/N=N\N(CCCl)CCCl | 55 % of control [9 of 10 alive on day 22] | 46 % of control | 3 % of control | 80 % of control [9 of 10 alive on day 22] | 54 % of control |  | 
COc1cc2c(c3oc4cccc(O)c4c(=O)c13)[C@@H]1C=CO[C@@H]1O2 |  |  | 86 % of control |  |  | 26 % of control | 0 of 10 on day 22
